Experimental data reported in PMC4344508.

Biological target: T1, FLAG-Luzp4 (human) (UniProt Q9P127)
T1 sequence: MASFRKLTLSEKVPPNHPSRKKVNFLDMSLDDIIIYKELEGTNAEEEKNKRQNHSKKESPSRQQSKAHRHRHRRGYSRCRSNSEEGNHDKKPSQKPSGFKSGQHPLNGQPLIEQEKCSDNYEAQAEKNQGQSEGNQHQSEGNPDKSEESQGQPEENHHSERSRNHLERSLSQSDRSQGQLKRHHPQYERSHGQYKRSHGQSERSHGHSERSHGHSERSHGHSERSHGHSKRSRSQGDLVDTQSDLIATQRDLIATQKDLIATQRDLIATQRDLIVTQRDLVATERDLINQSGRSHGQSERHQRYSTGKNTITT
Experiment: affinity purification with mass spectrometry; anti-FLAG agarose IP of FLAG-Luzp4 from Flp-In T-REx 293 stable cells (control: FLAG cell line), elution with 1 M arginine-HCl pH 3.5, LC-MS/MS

B1: Ars2/Srrt (protein, UniProt Q9BXP5 1-876)
chain: MGDSDDEYDRRRRDKFRRERSDYDRSRERDERRRGDDWNDREWDRGRERRSRGEYRDYDRNRRERFSPPRHELSPPQKRMRRDWDEHSSDPYHSGYEMPYAGGGGGPTYGPPQPWGHPDVHIMQHHVLPIQARLGSIAEIDLGVPPPVMKTFKEFLLSLDDSVDETEAVKRYNDYKLDFRRQQMQDFFLAHKDEEWFRSKYHPDEVGKRRQEARGALQNRLRVFLSLMETGWFDNLLLDIDKADAIVKMLDAAVIKMEGGTENDLRILEQEEEEEQAGKPGEPSKKEEGRAGAGLGDGERKTNDKDEKKEDGKQAENDSSNDDKTKKSEGDGDKEEKKEDSEKEAKKSSKKRNRKHSGDDSFDEGSVSESESESESGQAEEEKEEAEEALKEKEKPKEEEWEKPKDAAGLECKPRPLHKTCSLFMRNIAPNISRAEIISLCKRYPGFMRVALSEPQPERRFFRRGWVTFDRSVNIKEICWNLQNIRLRECELSPGVNRDLTRRVRNINGITQHKQIVRNDIKLAAKLIHTLDDRTQLWASEPGTPPLPTSLPSQNPILKNITDYLIEEVSAEEEELLGSSGGAPPEEPPKEGNPAEINVERDEKLIKVLDKLLLYLRIVHSLDYYNTCEYPNEDEMPNRCGIIHVRGPMPPNRISHGEVLEWQKTFEEKLTPLLSVRESLSEEEAQKMGRKDPEQEVEKFVTSNTQELGKDKWLCPLSGKKFKGPEFVRKHIFNKHAEKIEEVKKEVAFFNNFLTDAKRPALPEIKPAQPPGPAQILPPGLTPGLPYPHQTPQGLMPYGQPRPPILGYGAGAVRPAVPTGGPPYPHAPYGAGRGNYDAFRGQGGYPGKPRNRMVRGDPRAIVEYRDLDAPDDVDFF
binding: binds

These are yes or no findings as the source states them, for the method shown. Binding seen in cells or lysates may run through a third protein. Here binding means that the protein was enriched with, or labelled near, the bait; the list need not be complete. Where a sequence is shown, tags or fusion partners need not be part of it.
